Protein sequences, listed by entry. Tags and fused reporters are not part of them. Lines headed by an entry give the natural chain unless they say otherwise; changes in a name come on top.
UniProt Q9VAA9: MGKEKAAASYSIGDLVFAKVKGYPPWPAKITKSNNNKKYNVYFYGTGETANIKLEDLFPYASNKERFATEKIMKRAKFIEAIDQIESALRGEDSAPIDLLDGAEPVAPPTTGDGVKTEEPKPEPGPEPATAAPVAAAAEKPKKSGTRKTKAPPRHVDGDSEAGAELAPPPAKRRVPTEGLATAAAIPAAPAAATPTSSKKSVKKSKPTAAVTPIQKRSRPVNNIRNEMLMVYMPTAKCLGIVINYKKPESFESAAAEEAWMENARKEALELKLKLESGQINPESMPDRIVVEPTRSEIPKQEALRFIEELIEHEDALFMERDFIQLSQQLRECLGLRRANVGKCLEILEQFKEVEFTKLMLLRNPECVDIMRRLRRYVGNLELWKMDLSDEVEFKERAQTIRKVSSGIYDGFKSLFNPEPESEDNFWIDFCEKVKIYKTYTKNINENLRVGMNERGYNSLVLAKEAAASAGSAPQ

According to paper doi:10.1101/856021:

Target: V5::dP75 (V5 tag knocked in at the endogenous dP75 locus) (Drosophila (endogenous in fly ovaries)) (UniProt Q9VAA9)
Experiment: affinity purification with mass spectrometry

- binding: binds
B1: histone kinase Jil-1 (endogenous, fly ovaries) (enzyme, UniProt Q9V3I5 1-1207)
chain: MSRLQKQNYEILSGTSTSRLKNHQHPRESESLAYEEPDQMVRNHLNGQLVANGNGKTRKNSNSETMTNGKKSKLNTEGSGSGSGKTLNYNNNNNNNNSISATNGQYTNSSSKTTSASARDYTYRETISPPTPPSPPTTNVADIVCISDAESEDGRDPEREYYDQDMEEDEPNGIEIDESSSSLSKAKSNNAAAAAAAAAAAAAAAASKASSSTTPSYAMPTSNSTPLDLDNEAHQRDLEAVTDLKYYVKLYSDEAVSLNDFKIIRVLGTGAYGRVFLVRKLTRHDAGKLYAMKVLNKITVVQKRKTAEHTKTERVVLEAIQRNPFLVSLHYAFQSSSKLYLVLDFANGGELFTHLYHSENFEESRVRVYIAEVVLALEQLHQLGIIYRDIKLENILLDGEGHIVLSDFGLSKILTAENEYRAHSFCGTLEYMAPEIIRTGPPGHDSAVDWWSVGVLTFELLTGASPFATSDGQVQQSEISRRIQKEQPMIPSSFSANARDFVLKMLEKNPKRRLGGNHRDASEIKEHPFFNGINWQELRTKRRKAPYKPTLTAEDDVQNFSNEFTDQVPEDPECDAPPSRIRLFRGYTYVAPEHLEQMRRDNHCEIQYFNTGLQNIPCRPDDLELGTRTSNGAYGTCHFVVDSSTDLVFLAKIIPLSKFRPSEVDALISCALDTTNHKNIVSYHGTFREKCETWIVMEYLSGPELTASIRMDEDSCREIFLQLVMAVRHIHSKHFIHGDLKPENIMFENREDRTVKLIDFGSACYNNRFKSWKDKPRYTLDYAPPEMLADANLVTYSPAVDIYGLGATLYTMLVGHRPYRQNEDDVDHSAAAHHELRKRMRRGTFNQRSMRWESASPAFRHLVSWCLQRDPADRPTLSDILDSEWLQYGSNDPDVDIILPQQMVVDLSEDTMEQPTGGMFDDQQQLEFMHDKSAEDEGITLVSEPMDTTVATHESRRNAAAFSSVVAPTTDDEIVHERFDPAFEVQADFYGFDENAPPLPLPEEYYSELPLPEEDRQYIPPPPALIPVEPETTFRRPRTRQQRRTESQLVQPVSVATYEDSKASLRVLMQQLPPPGDNVVARIPKRTHRVVRTLPPTFGTTKREENFYGFSKTAISWRKTRASWRHFCLLINGVQQVLKVRFKKARRVYCLPHIKEEKLDHAYEKPLTFPRPKAQLKRTKREPKVPRPPTRVQPERARAMRQLYQFQ

Results are given in words; binding and its absence hold for the method and conditions named. In cells and extracts the contact can be indirect. Here binding means that the protein was enriched with, or labelled near, the bait; the list need not be complete. Tags and fused reporters may be left off the sequences shown.
